Reference: publication PMC4893818, “Folliculin directs the formation of a Rab34–RILP complex to control the nutrient‐dependent dynamic distribution of lysosomes” (EMBO Reports, 2016)
Positions count from the first letter of the chain named. In names and notes the source's numbering stands. These are yes or no findings as the source states them, for the method shown. Where a sequence is shown, tags or fusion partners need not be part of it.

How the values were obtained:
[1] = molecular target: T1, GST-RILP (full ORF) (human, UniProt Q96NA2 1-401); assay: pull-down; purified proteins: 0.2 nmol GST-RILP on glutathione beads; Rab34 proteins at 200 nM or FLCN-DENN at 1 uM, each alone; HEPES pH 7.5, 250 mM NaCl, 2 mM MgCl2, 1 mM GDP or GTPγS where indicated; 14 h at 4 °C; anti-His Western blot; both purified
T1 construct: also called GST-RILP resin; source: E. coli BL21(DE3), purified (glutathione beads, eluted with glutathione, dialysed); not shown: GST, N-terminal, kept
T1 sequence (looked up): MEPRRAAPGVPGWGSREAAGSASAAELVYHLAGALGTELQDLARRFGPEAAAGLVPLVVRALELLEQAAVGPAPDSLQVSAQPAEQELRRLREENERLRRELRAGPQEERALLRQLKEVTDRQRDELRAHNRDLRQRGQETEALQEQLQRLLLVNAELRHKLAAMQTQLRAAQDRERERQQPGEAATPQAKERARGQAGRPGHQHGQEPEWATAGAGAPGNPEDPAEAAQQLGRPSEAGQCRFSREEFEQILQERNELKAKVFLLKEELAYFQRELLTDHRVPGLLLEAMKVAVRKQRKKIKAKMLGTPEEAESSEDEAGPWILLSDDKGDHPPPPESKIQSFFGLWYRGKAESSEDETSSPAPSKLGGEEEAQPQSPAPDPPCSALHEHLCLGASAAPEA

[2] = molecular target: T1, GST-RILP (full ORF); assay: pull-down; purified proteins: 0.2 nmol GST-RILP on glutathione beads; Rab34 proteins at 200 nM together with FLCN-DENN (1 uM; titrated 0 to 10 uM; 0.5 uM for wild-type Rab34); HEPES pH 7.5, 250 mM NaCl, 2 mM MgCl2, 1 mM GDP or GTPγS; 14 h at 4 °C; anti-His Western blot; both purified
[3] = molecular target: T1, GST-RILP (full ORF); assay: condition: only Rab34 loaded with GDP (1 mM GDP); 200 nM; pull-down; purified proteins: 0.2 nmol GST-RILP on glutathione beads; Rab34 proteins at 200 nM or FLCN-DENN at 1 uM, each alone; HEPES pH 7.5, 250 mM NaCl, 2 mM MgCl2, 1 mM GDP or GTPγS where indicated; 14 h at 4 °C; anti-His Western blot; both purified
[4] = molecular target: T1, GST-RILP (full ORF); assay: condition: only Rab34 loaded with GDP (1 mM GDP); 200 nM; pull-down; purified proteins: 0.2 nmol GST-RILP on glutathione beads; Rab34 proteins at 200 nM together with FLCN-DENN (1 uM; titrated 0 to 10 uM; 0.5 uM for wild-type Rab34); HEPES pH 7.5, 250 mM NaCl, 2 mM MgCl2, 1 mM GDP or GTPγS; 14 h at 4 °C; anti-His Western blot; both purified

B1: His-tagged Rab34 T66N (protein, UniProt Q64008 1-259)
chain: MNILAPVRRDRVLAELPQCLKKEAALHVRKDFHPRVTCACQEHRTGTVGFKISKVIVVGDLSVGKNCLINRFCKDTFDKNYKATIGVDFEMERFEVLGVPFSLQLWDTAGQERFKCIASTYYRGAQAIIIVFNLNDVASLEHTKQWLTDALKENDPSNVLLFLVGSKKDLSTPAQYSLMEKDALKVAQEIKAEYWAVSSLTGENVREFFFRVAALTFEANVLADVEKSGARHIADVVRINSDDKNLYLTASKKKATCCP
binding [1]: no binding (tested: 200 nM) | binding [2]: no binding (tested: 200 nM)

B2: His-tagged Rab34 WT (natural protein, mouse, UniProt Q64008 1-259, looked up)
chain: B1 chain with N66T
notes: Rab34, mouse, from an I.M.A.G.E. clone, in pET28 His-thrombin; loaded with GTPγS or GDP before the pull-down; also called wild-type Rab34; purified Rab34; source: E. coli, purified (His-trap FF, imidazole gradient)
binding [3]: no binding | binding [4]: no binding
